Assay results: patent EP4273142A1 (Université de Bretagne Occidentale, priority 2022, dated 2023)
For at least one compound, name, drawing or mass did not settle the structure. Marks after values point to notes of the source that are not given here.

Tests used:
[1] = Ligand protonation equilibria by potentiometric titration; type: physicochemical; conditions: Table 6, overall constant in log units, 1.0 M KCl
[2] = Acid-mediated dissociation (cold inertness) followed by 1H NMR; type: physicochemical; conditions: Pd(II) complex, 5 M DCl (HCl 5M), 90°C, up to five months, 0.05M
[3] = Pd(II) complexation equilibria by UV spectrophotometry and potentiometry

With `O=C(O)c1cccc(CN2CCCNCCNCCCNCC2)n1` [TE1PA, 6-((1,4,8,11-tetraazacyclotetradecan-1-yl)methyl)picolinate] the “H + 5 H^+ ⇄H5L” value [1] was 28.21(6), the Dissociation [2] was “absence of evolution of the structures even after five months incubation” and the “Pd^2+ + L ⇄PdL” value ([3]; Table 5, complexation constant in log units, […], 1.0 M (K,H)Cl) was 38.4(1). The “Pd^2+ + L ⇄PdL” value ([3]; Table 6, overall formation constant in log units, […], 1.0 M (K,H)Cl) was 38.4(1), the “Pd^2+ + L + 2 H^+ ⇄PdH2L” value ([3]; Table 6, overall formation constant in log units, determined by UV spectrophotometry, pH 0-1.5, […], 1.0 M (K,H)Cl) was 43.1(1) ^b and the “Pd^2+ + L + H^+ ⇄PdHL” value ([3]; Table 6, overall formation constant in log units, fitted to potentiometric data, […], 1.0 M (K,H)Cl) was 41.3(1). The “log KML” value ([3]; stability constant of the Pd(II) complex, 25°C in 1.0 M KCl) was 38.4.
